No constants are given. Whether binding was seen depends on the method and setting. Binding seen in cells or lysates may run through a third protein. Some binding calls cover weakened binding; strength is not graded here. For part of these data: Where a sequence is shown, tags or fusion partners need not be part of it.

Amino acid sequences for entries named in this document (tags omitted). A change or cut given only in a name is not applied to a line headed by its entry.
UniProt P03372: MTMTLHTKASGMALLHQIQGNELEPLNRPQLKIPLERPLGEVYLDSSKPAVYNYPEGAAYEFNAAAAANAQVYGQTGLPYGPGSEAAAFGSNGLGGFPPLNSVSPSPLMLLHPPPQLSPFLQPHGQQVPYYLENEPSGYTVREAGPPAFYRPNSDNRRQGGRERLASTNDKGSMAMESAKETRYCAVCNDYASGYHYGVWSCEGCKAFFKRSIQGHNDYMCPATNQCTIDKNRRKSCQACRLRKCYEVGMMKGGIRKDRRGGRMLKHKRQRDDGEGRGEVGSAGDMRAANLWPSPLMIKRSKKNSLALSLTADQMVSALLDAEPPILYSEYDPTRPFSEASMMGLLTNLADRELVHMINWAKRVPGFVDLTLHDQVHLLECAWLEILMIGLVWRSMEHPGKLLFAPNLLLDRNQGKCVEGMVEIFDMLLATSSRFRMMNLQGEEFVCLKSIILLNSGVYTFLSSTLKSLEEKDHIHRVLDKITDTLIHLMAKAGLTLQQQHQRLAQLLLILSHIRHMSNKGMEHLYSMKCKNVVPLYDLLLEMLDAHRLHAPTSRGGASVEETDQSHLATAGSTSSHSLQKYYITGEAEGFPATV

The values that follow come from publication PMC3757244.

Assay [1] deals with T1, GST-Rb N-terminal (1-373 a.a.) (UniProt P06400).
T1 sequence: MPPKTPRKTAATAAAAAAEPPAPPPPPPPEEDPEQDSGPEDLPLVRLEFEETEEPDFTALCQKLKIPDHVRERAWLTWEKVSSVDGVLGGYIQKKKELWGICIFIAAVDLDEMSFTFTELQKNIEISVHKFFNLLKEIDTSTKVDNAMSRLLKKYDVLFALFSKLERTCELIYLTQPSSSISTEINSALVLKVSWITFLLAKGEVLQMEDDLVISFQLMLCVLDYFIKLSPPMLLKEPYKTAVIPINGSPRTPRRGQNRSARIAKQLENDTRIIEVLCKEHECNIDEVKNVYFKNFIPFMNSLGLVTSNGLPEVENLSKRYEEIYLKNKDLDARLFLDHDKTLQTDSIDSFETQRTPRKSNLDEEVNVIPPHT
The experiment in a line: pull-down; GST pull down with GST-pRb N-terminal, Pocket and C-terminal domains; ESR1 AB, CD and EF domains in MCF7 cells; only the target purified.

For assay [2], the target named is Estrogen receptor alpha (ESR1) (human (endogenous in MCF7)) (UniProt P03372). As to the kind of experiment: co-IP; endogenous proteins of MCF7 lysate (20 mM Tris HCl pH 8, 137 mM NaCl, 10% glycerol, 1% NP40, 2 mM EDTA); 3 mg protein immunoprecipitated with 4 ug ERα antibody or mouse IgG overnight at 4°C, protein A/G beads; western blot; for the chaperones cells untreated or treated with MG132 for 4 hours, scrambled or RB1 kd1. A general note: In western blotting, separated proteins are transferred to a membrane and probed.

With “ERα His-CD (CD domain of ESR1) (from UniProt P03372 179-303) (domain or fragment)”, in assay [1], the binding result is reported as “binds”.

B1: p23 (protein, UniProt Q15185 1-160)
chain: MQPASAKWYDRRDYVFIEFCVEDSKDVNVNFEKSKLTFSCLGGSDNFKHLNEIDLFHCIDPNDSKHKRTDRSILCCLRKGESGQSWPRLTKERAKLNWLSVDFNNWKDWEDDSDEDMSNFDRFSEMMNNMGGDEDVDLPEVDGADDDSQDSDDEKMPDLE
In the case of B1, in assay [2], the binding entry is “binds”.

B2: Retinoblastoma protein (pRb) (protein, UniProt P06400 1-928)
chain: MPPKTPRKTAATAAAAAAEPPAPPPPPPPEEDPEQDSGPEDLPLVRLEFEETEEPDFTALCQKLKIPDHVRERAWLTWEKVSSVDGVLGGYIQKKKELWGICIFIAAVDLDEMSFTFTELQKNIEISVHKFFNLLKEIDTSTKVDNAMSRLLKKYDVLFALFSKLERTCELIYLTQPSSSISTEINSALVLKVSWITFLLAKGEVLQMEDDLVISFQLMLCVLDYFIKLSPPMLLKEPYKTAVIPINGSPRTPRRGQNRSARIAKQLENDTRIIEVLCKEHECNIDEVKNVYFKNFIPFMNSLGLVTSNGLPEVENLSKRYEEIYLKNKDLDARLFLDHDKTLQTDSIDSFETQRTPRKSNLDEEVNVIPPHTPVRTVMNTIQQLMMILNSASDQPSENLISYFNNCTVNPKESILKRVKDIGYIFKEKFAKAVGQGCVEIGSQRYKLGVRLYYRVMESMLKSEEERLSIQNFSKLLNDNIFHMSLLACALEVVMATYSRSTSQNLDSGTDLSFPWILNVLNLKAFDFYKVIESFIKAEGNLTREMIKHLERCEHRIMESLAWLSDSPLFDLIKQSKDREGPTDHLESACPLNLPLQNNHTAADMYLSPVRSPKKKGSTTRVNSTANAETQATSAFQTQKPLKSTSLSLFYKKVYRLAYLRLNTLCERLLSEHPELEHIIWTLFQHTLQNEYELMRDRHLDQIMMCSMYGICKVKNIDLKFKIIVTAYKDLPHAVQETFKRVLIKEEEYDSIIVFYNSVFMQRLKTNILQYASTRPPTLSPIPHIPRSPYKFPSSPLRIPGGNIYISPLKSPYKISEGLPTPTKMTPRSRILVSIGESFGTSEKFQKINQMVCNSDRVLKRSAEGSNPPKPLKKLRFDIEGSDEADGSKHLPGESKFQQKLAEMTSTRTRMQKQKMNDSMDTSNKEEK
With B2, the binding result in assay [2] is on record as “binds”.
